PubChem BioAssay AID2685 (National Center for Advancing Translational Sciences (NCATS), 2010)
Values joined by “and” are separate entries in the source; they are usually repeats but may differ in a detail not shown here. Equal values may be shown once. This is one part of the list. Shown are side measurements of this screen, not its main read-out; they come without a call. Compounds called inactive in the main read-out are mostly missing here. Potencies come from curve fits of mixed quality, noted in brackets.

Experiment: qHTS Assay for Lipid Storage Modulators in Drosophila S3 Cells;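 on cell number change: cells counted by Cell Tracker Red CMTPX staining in the red channel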
Conditions: BODIPY lipid droplet fluorescence, 18-24 h; for cell number change: measured here: cell count max response, cells fed with added oleic acid
Outline: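 Laser-scanning cytometry quantifies lipid droplet accumulation (500–530 nm total intensity; droplet/cell object ratio) in oleic acid-fed (400 uM added) Drosophila S3 cells treated with a concentration series. 20 uM Triacsin C defined 100% inhibition.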

[1] = measured here: cell number channel AC50, cells fed with added oleic acid
[2] = measured here: lipid fluorescence (Fed channel) AC50, cells fed with added oleic acid

Row | Structure (SMILES) | cell number change | AC50 [1] | AC50 [2]
1 | COc1ccc(-c2cc3nc(C)cc(-c4ccc(OC)cc4)n3n2)cc1 | -14.2% | – | –
2 | CC(C)[C@H](NC(=O)NCCc1ccccc1)C(=O)O | -92.2% | 10.3 µM [falling, partial curve, poor fit] | 20.6 µM [falling, partial curve]
3 | Cc1[nH]c(=O)[nH]c(=O)c1Cc1cccc2ccccc12 | -19.2% | – | 0.92 µM [falling, full curve, poor fit]
4 | CN(CC(=O)Nc1ccc(F)cc1)C(=O)COc1ccccc1Cc1ccccc1 | -1.59% | – | 3.66 µM [rising, single point]
5 | CN(C)/N=C/c1ccc(Sc2ccccc2[N+](=O)[O-])o1 | 29.8% | – | 29.1 µM [rising, single point]
6 | CCOC(=O)CCc1c(C)c2ccc(OCC(=O)N(CC)CC)c(C)c2oc1=O | – | – | 0.103 µM [falling, full curve, poor fit]
7 | CC1Cn2c(nnc2-c2ccccc2O)S1 (configuration not stated) | 29.2% | – | 2.91 µM [rising, partial curve, poor fit]
8 | CCOc1ccc2ccccc2c1/C=N/NC(=O)CNC(=O)c1ccccc1O | -14.5% | – | –
9 | O=C(CCCCCNC(=O)c1ccccc1)N/N=C/c1ccccc1O | – | – | 11.6 µM [falling, partial curve]
10 | CS(=O)(=O)Nc1ccc(C(=O)NCCc2ccccc2)cc1 | 126% | 23.1 µM [rising, partial curve] | 2.31 µM [rising, partial curve]
11 | CCC(C)NC(=O)c1ccc(CNS(=O)(=O)c2ccc3c(c2)C(C)(C)C(=O)N3C)cc1 (configuration not stated) | 27.2% | – | –
12 | Cc1ccc(-c2noc(-c3ccccc3C(=O)N3CCCC3)n2)cc1 | 17.5% | – | 23.1 µM [rising, single point]
13 | CCCCc1ncc(CN2CCC(n3nccc3NC(=O)c3ccccc3Cl)CC2)[nH]1 | 7.03% | – | 0.461 µM [rising, single point]
14 | NC(=O)Nn1c(CCC(=O)O)ccc1-c1ccc(Br)cc1 | -0.331% | – | 32.6 µM [falling, partial curve, poor fit]
15 | O=C(CSCc1ccccc1)N1CCc2ccccc21 | 42.4% | 3.66 µM [rising, full curve] | –
16 | Cc1ccc(C(C)C)c(OCC(=O)NS(=O)(=O)c2ccc(Cl)cc2)c1 | -17.3% | – | 29.1 µM [falling, single point]
17 | COc1ccc(CN(CC(=O)NCC2CCCO2)C(=O)CCC(=O)Nc2cc(C)ccn2)cc1 (configuration not stated) | 0.287% | – | –
18 | COc1ccccc1-n1c(-c2ccccc2)c[n+]2c1CCc1ccccc1-2 | -124% and -58.2% | 5.8 µM [falling, full curve] and 20.6 µM [falling, partial curve, poor fit] | 29.1 µM [falling, partial curve] and 20.6 µM [falling, partial curve, poor fit]
19 | Cc1c(Cl)cccc1NC(=S)N1CCN(c2ccc([N+](=O)[O-])cn2)CC1 | – | 2.06 µM [rising, partial curve] | 2.59 µM [rising, partial curve]
20 | COC(=O)c1ccccc1OC(=O)c1cccnc1 | 32.2% | – | 29.1 µM [falling, single point]
21 | CC(C)(C)c1ccc(OCc2ccc(C(=O)NCc3cccnc3)o2)cc1 | -58.4% | 29.1 µM [falling, single point] | 29.1 µM [falling, single point]
22 | COc1cc(OC)cc(OCC(O)Cn2ccnc2)c1 (configuration not stated) | -7.39% | – | –
23 | NC(=O)c1ccccc1NS(=O)(=O)c1ccc2c(c1)OCCO2 | 7.53% | – | –
24 | CCn1nc(C)cc1C(=O)N1CCCC(C(=O)c2ccc3ccccc3c2)C1 (configuration not stated) | -51.9% | 11.6 µM [falling, partial curve] | 4.61 µM [falling, full curve]
25 | COc1ccccc1CNC(=O)CN1C(=O)NC(C)(c2ccc(C(C)(C)C)cc2)C1=O (configuration not stated) | -16.2% | – | –
26 | O=C(C1CC1)N1CCCC(c2ccc(Cl)cc2)=N1 | -19.8% | – | –
27 | COCc1cc(C)nc(Nc2cc(C)ccc2C)c1C#N | -5.88% | – | –
28 | C=CCOc1ccc(CN(C)CC(O)COc2cccc3ccccc23)cc1 (configuration not stated) | -1.21% | – | 29.1 µM [rising, single point]

Fetched by compound from the list above (three):
Row | Structure (SMILES) | cell number change | AC50 [1] | AC50 [2]
28 | C=CCOc1ccc(CN(C)CC(O)COc2cccc3ccccc23)cc1 (configuration not stated) | -1.21% | – | 29.1 µM [rising, single point]
16 | Cc1ccc(C(C)C)c(OCC(=O)NS(=O)(=O)c2ccc(Cl)cc2)c1 | -17.3% | – | 29.1 µM [falling, single point]
21 | CC(C)(C)c1ccc(OCc2ccc(C(=O)NCc3cccnc3)o2)cc1 | -58.4% | 29.1 µM [falling, single point] | 29.1 µM [falling, single point]

(continued)

Row | Structure (SMILES) | cell number change | AC50 [1] | AC50 [2]
29 | CCC(CC)c1nnc(NC(=O)c2nn(C)c(=O)c3ccccc23)s1 | -34.7% | 0.731 µM [falling, full curve, poor fit] | 29.1 µM [falling, single point]
30 | Cc1nn(-c2ccccc2)c2c1P(=O)(O)/C(=C1\N(C)c3ccccc3C1(C)C)C=N2 | 58% | 10.3 µM [rising, single point] | 29.1 µM [rising, single point]
31 | COc1ccc(-c2cccc(C3CC=CC4C3C(=O)N(Cc3ccccc3)C4c3ccc(C(F)(F)F)cc3)c2)cc1 (configuration not stated) | 2.46% | – | 2.06 µM [rising, full curve, poor fit]
32 | CCCC1(c2ccccc2)NC(=O)N(CC(=O)Nc2cc(C)ccc2OC)C1=O (configuration not stated) | 0.901% | – | –
33 | Cc1cc(C(=O)OCC(=O)Nc2ccccc2C)c(C)o1 | 4.91% | 3.66 µM [rising, single point] | 3.66 µM [rising, partial curve, poor fit]
34 | O=C(NC1CCN(S(=O)(=O)c2ccc(F)cc2)CC1)c1ccco1 | 11.5% | – | –
35 | O=C(Nc1ccc(Oc2ncnc3cc(Cl)ccc23)nc1)c1cccs1 | – | 2.31 µM [rising, partial curve, poor fit] | 4.61 µM [rising, partial curve]
36 | c1ccc(Nc2nc3ccccc3[nH]2)nc1 | -35.4% | 32.6 µM [falling, single point] | –
37 | CCOc1ccc(S(=O)(=O)Nc2nc3ccccc3nc2-n2ccc(=NC(=O)c3cccs3)cc2)cc1 | 14.8% | – | 6.51 µM [falling, single point]
38 | CCOC(=O)C1=C(CNCc2ccccc2Cl)NC(=O)NC1c1ccc2c(c1)OCO2 (configuration not stated) | -27.9% | – | 6.51 µM [rising, partial curve]
39 | C#CCOCCOCCOCCNc1nc(N2CCN(C(=O)CCCCCCCCCCNC(=O)[C@H]([C@@H](C)CC)n3cc(CCCCN=C(N)N)nn3)CC2)nc(N2CCN(C(=O)CCCCCCCCCCNC(=O)[C@H](CCCCN)n3cc(C)nn3)CC2)n1 | -76.5% | 18.4 µM [falling, partial curve] | 0.0164 µM [falling, partial curve, poor fit]
40 | N#Cc1nc(Nc2cccc(Cl)c2)c2ncn(C3CCCC3)c2n1 | -30.2% | 9.2 µM [falling, single point] | 0.58 µM [rising, partial curve]
41 | CC(=O)c1cc2c(cc1NC(=O)c1ccc(C)cc1)OCO2 | 17.4% | – | 0.013 µM [rising, full curve, poor fit]
42 | CC(C)N(Cc1nc(-c2ccc(Cl)cc2)no1)C(=O)C(c1ccccc1)c1ccccc1 | 41% | 5.8 µM [rising, full curve] | 23.1 µM [rising, partial curve]
43 | N#Cc1c(-c2ccccc2)nc(N2CCOCC2)[nH]c1=O | -4.78% | – | 0.731 µM [rising, single point]
44 | CC(NC(=O)c1c(O)c2ccccc2[nH]c1=O)c1ccccc1 (configuration not stated) | -4.99% | – | 16.4 µM [rising, single point]
45 | CCOC(=O)/C(C#N)=N/Nc1ccc(S(=O)(=O)N2CCc3ccccc32)cc1 | 10% | – | 29.1 µM [falling, partial curve]
46 | CC(Sc1nnc(-c2cccnc2)n1-c1ccccc1)C(=O)NCc1ccc2c(c1)OCO2 (configuration not stated) | 3.45% | – | 2.31 µM [rising, partial curve, poor fit]
47 | CC(=O)Nc1ccc(C(=O)OCC(=O)N(C)C2CCCCC2)cc1 | -9.29% | 0.184 µM [falling, full curve, poor fit] | 4.61 µM [falling, partial curve]
48 | CC(NCC(=O)Nc1cc(S(=O)(=O)N2CCCCCC2)ccc1Cl)c1ccccc1 (configuration not stated) | 133% | 10.3 µM [rising, partial curve] | 23.1 µM [rising, partial curve]
49 | O=C(Nc1cccc(-c2csc(Nc3ccc(Cl)cc3)n2)c1)c1cc([N+](=O)[O-])cc(C(F)(F)F)c1 | -40.3% | 20.6 µM [falling, single point] | 23.1 µM [falling, single point]
50 | CC(C)(C)C(=O)Nc1ccc(-c2cn3cccnc3n2)cc1 | -5.56% | – | –
51 | CC1CCN(c2c(NCC3CCC(C(=O)NCCc4ccccc4)CC3)c(=O)c2=O)CC1 (configuration not stated) | 26.9% | – | 9.2 µM [rising, partial curve]
52 | CN(C)c1cccc2c1C(=O)c1ccccc1C2=O | 9.64% | 5.8 µM [rising, single point] | 10.3 µM [falling, partial curve, poor fit]
53 | COc1ccc(Nc2nc3nonc3nc2N2CCCCC2)cc1 | -0.64% | – | 6.51 µM [rising, partial curve, poor fit]
54 | O=C(CSc1ccccc1F)OCC(=O)N1CCN(C(=O)c2ccco2)CC1 | -30.5% | 29.1 µM [falling, single point] | –
55 | Cc1ccc2c(C)c(C(=O)N3CCN(c4cnccn4)CC3)oc2c1C | 32.6% | 2.51 µM [rising, full curve, poor fit] | 0.398 µM [rising, full curve, poor fit]
